Data as given in publication PMC6337261 (Molecules, 2019).

Assay: general procedure: Fmoc solid-phase peptide synthesis
Conditions: whole synthesis, overall

Substance | isolated yield [% overall yield]
Acetyl-Asp-Glu-Val-Aspψ(CH2NH)-Ala-NH2 | 27
Hexynoyl-Bpa-Asp-Glu-Val-Asp(triazolo)-Ala-NH2 | 2
Hexynoyl-Asp-Glu-Val-Aspψ(CH2NH)-Ala-NH2 | 22
Hexynoyl-Bpa-Asp-Glu-Val-Aspψ(CH2NH)-Ala-NH2 | 4
Hexynoyl-Asp-Glu-Val-Aspψ(CH2NH)-Ala-p-azido-Phe-NH2 | 11
Hexynoyl-Asp-Glu-Val-Aspψ(CH2NH)-Ala-Bpa-NH2 | 7
Hexynoyl-Asp-Glu-Val-Asp(triazolo)-Ala-Bpa-Gly-NH2 | 13
Hexynoyl-photoLeu-Asp-Glu-Val-Aspψ(CH2NH)-Ala-NH2 | 7
Hexynoyl-Asp-Glu-Val-Aspψ(CH2NH)-Ala-photoLeu-NH2 | 8
Hexynoyl-p-azido-Phe-Asp-Glu-Val-Aspψ(CH2NH)-Ala-NH2 | 1
